Data: publication PMC7475098
No constants are given. Whether binding was seen depends on the method and setting. For some of these results: In cells and extracts the contact can be indirect. Some results given as binding are weak or reduced against the parent protein; the word gives no strength. For some of these results: Sequences can lack the tags named with a protein.

Chains of the proteins cited; added tags and fusions are not shown.
UniProt Q6ETX0: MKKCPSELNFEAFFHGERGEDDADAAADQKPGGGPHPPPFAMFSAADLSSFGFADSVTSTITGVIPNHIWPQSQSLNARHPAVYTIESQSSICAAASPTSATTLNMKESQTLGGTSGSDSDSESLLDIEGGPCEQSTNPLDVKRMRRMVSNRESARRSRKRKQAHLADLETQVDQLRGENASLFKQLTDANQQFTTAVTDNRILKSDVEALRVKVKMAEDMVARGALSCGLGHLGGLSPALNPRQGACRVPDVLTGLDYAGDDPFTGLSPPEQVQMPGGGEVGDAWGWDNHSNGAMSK

Key:
[1] = biological target: T1, OsSAPK8 (pGBKT7-OsSAPK8) (rice (Oryza sativa L.)) (UniProt Q7Y0B9); experiment: two-hybrid; yeast strain Y2HGold; pGBKT7-OsSAPK8/9/10 + pGADT7-OsbZIP20; growth on SD/Leu-/Trp-/His+2 mM 3-AT at 30 °C for 2–3 d
T1 sequence: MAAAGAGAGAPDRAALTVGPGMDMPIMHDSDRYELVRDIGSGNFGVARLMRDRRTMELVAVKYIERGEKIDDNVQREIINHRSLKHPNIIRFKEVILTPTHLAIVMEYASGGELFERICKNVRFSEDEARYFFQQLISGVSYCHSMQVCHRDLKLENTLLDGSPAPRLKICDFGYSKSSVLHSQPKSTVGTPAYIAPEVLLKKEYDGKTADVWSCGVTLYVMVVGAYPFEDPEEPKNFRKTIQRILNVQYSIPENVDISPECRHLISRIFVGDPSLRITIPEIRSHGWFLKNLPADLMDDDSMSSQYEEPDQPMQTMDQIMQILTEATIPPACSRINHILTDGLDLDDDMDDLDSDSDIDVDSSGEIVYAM

[2] = biological target: T2, OsSAPK10 (pGBKT7-OsSAPK10) (rice (Oryza sativa L.)) (UniProt Q75H77); experiment: as above
T2 sequence: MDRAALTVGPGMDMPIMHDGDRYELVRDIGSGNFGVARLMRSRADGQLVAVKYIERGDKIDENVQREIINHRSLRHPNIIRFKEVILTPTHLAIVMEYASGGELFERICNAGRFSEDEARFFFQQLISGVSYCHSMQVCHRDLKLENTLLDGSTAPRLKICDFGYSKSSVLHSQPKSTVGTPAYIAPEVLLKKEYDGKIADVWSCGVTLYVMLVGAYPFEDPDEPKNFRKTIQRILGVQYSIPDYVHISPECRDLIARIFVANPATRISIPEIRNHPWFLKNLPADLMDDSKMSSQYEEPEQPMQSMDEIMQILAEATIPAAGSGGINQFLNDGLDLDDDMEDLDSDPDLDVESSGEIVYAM

[3] = biological target: T3, OsSAPK9 (pGBKT7-OsSAPK9) (rice (Oryza sativa L.)) (UniProt Q75V57); experiment: as above
T3 sequence: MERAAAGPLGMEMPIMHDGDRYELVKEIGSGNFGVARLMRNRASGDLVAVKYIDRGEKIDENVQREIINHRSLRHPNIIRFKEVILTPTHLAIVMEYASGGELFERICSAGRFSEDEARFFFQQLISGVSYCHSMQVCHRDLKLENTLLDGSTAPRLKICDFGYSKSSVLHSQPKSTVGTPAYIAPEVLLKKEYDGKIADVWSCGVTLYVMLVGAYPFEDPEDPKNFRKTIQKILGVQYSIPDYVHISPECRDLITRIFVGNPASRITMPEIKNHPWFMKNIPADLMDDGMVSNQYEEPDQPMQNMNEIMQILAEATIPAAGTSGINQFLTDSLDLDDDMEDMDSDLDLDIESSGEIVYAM

[4] = biological target: T4, OsSAPK9–nYFP (rice (Oryza sativa L.)) (UniProt Q75V57); experiment: split reporter; BiFC with N- and C-terminal eYFP fragments; agroinfiltrated Nicotiana benthamiana leaves; confocal microscopy two days after incubation
T4 sequence: T3 sequence

binding [1] | binding [2] | binding [3] | binding [4] | Substance
no binding | no binding | binds |  | OsbZIP20 (pGADT7-OsbZIP20) (from UniProt Q6ETX0 1-298)
 |  |  | binds | cYFP–OsbZIP20 (from UniProt Q6ETX0 1-298)
